This note sets out measurements from PubChem BioAssay AID1487 (National Center for Advancing Translational Sciences (NCATS), 2009).

This is one part of the list. These are further read-outs of the screen, such as a control signal, another cell line or another target. No call is given for them. Compounds called inactive in the main read-out are mostly missing here. Words in brackets tell the shape of the fitted curve; partial curves, single points and poor fits give uncertain potencies.

This experiment in a line: qHTS Assay for Modulators of Lamin A Splicing. Conditions: HeLa LMNA splicing GFP/RFP minigene ratio, 48 h. The procedure, abridged:
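S3 HeLa cells stably expressing lamin A-EGFP splicing minigene plus DsRed2, 600 cells/well, 48 h compound exposure at 37C. Laser-scanning cytometry; analysed as GFP (500-530 nm)/RFP (575-640 nm) total intensity ratio; 0.5% DMSO vehicle.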

Where [1] appears, read: measured here: RFP viability control channel.
Where [2] appears, read: measured here: GFP splicing reporter channel.

For `CC(Oc1ccc2ccccc2c1)C(=O)NNC(=S)NC(=O)c1ccco1` (stereo unspecified), the concentration at half-maximal activity (AC50) under setting [1] was 10 µM [rising, partial curve, poor fit].

For `COc1cccc(-n2nnnc2SCC(=O)NCc2ccc3c(c2)OCO3)c1`, the AC50 is 3.16 µM [falling, partial curve, poor fit] under setting [2] and 2.82 µM [falling, partial curve] under setting [1].

Consider `O=C(c1cccc([N+](=O)[O-])c1)N1CCN(c2ccc(Cl)cc2)CC1`, for which the concentration at half-maximal activity (AC50) under setting [2] was 10 µM [rising, partial curve, poor fit] and the concentration at half-maximal activity (AC50) under setting [1] was 14.1 µM [rising, partial curve].

Take `Cc1cccc(CCNC(=O)c2nc(-c3ccc(Cl)cc3)n3c2CCCCC3)c1`: the half-maximal activity concentration (AC50) reads like this: under setting [2], 35.5 µM [rising, single point]; under setting [1], 35.5 µM [rising, single point].

For `CCOC(=O)c1cc(CC)sc1NC(=O)CSc1nc2ccccc2c(=O)n1Cc1ccco1`, the AC50 under setting [2] was 0.224 µM [rising, partial curve].

For `CCN1CCN(c2ncc3c(n2)CCN(Cc2ccc(C)s2)C3)CC1`, the AC50 under setting [2] is 0.178 µM [rising, full curve, poor fit] and the concentration at half-maximal activity (AC50) under setting [1] is 0.316 µM [rising, full curve, poor fit].

On to `Cc1noc(C)c1S(=O)(=O)Nc1ccc(C(=O)N2CCN(c3cccc(Cl)c3)CC2)cc1`, for which the AC50 under setting [1] is 28.2 µM [rising, single point].

Regarding `CCOc1ccc(C(=O)OCc2cc(=O)n3nc(C(C)C)sc3n2)cc1`, under setting [2], the AC50 was 0.112 µM [falling, full curve, poor fit].

In the case of `Cc1ccc(NC(=O)C2CCN(S(=O)(=O)c3c(C)noc3C)CC2)cc1C`, the AC50 under setting [1] is 0.0224 µM [falling, full curve, poor fit].

Regarding `COc1cccc(NC(=O)CN2C(=O)C3(SCC(=O)N3c3cc(C)cc(C)c3)c3ccccc32)c1` (stereo unspecified), under setting [2], the half-maximal activity concentration (AC50) was 8.91 µM [falling, full curve, poor fit].

Regarding `COC(=O)c1cc2oc(C)cc2n1Cc1ccc(Cl)cc1`, the AC50 under setting [2] is 2.51 µM [falling, full curve, poor fit].

In the case of `O=C(OCCN1C(=O)c2cccc3c(N4CCOCC4)ccc(c23)C1=O)c1cc(Cl)cc(Cl)c1`, the concentration at half-maximal activity (AC50) under setting [1] is 5.62 µM [rising, single point].

Take `c1ccc(Cc2ccc(OCCn3cncn3)cc2)cc1`: the AC50 under setting [1] is 20 µM [rising, single point].

With `Cc1cc(C(=O)CSc2nnc(-c3cccs3)n2Cc2ccccc2)c(C)n1C`, the AC50 reads like this: under setting [2], 7.94 µM [rising, partial curve, poor fit]; under setting [1], 11.2 µM [rising, partial curve, poor fit].

With `Cn1c(=O)c2ncn(CC(=O)Nc3cccc(-c4nc5ccccc5s4)c3)c2n(C)c1=O`, the AC50 by setting is: under setting [2], 1.26 µM [rising, full curve]; under setting [1], 2.24 µM [rising, full curve].

The term AC50 denotes the concentration giving half of the maximal activity seen.
